No constants are given. Whether binding was seen depends on the method and setting. In cells and extracts the contact can be indirect. Binding can be weak; no strength is given. Sequences can lack the tags named with a protein.
Molecular target: GFP-p38
Assay: co-IP; GFP-JNK1 (or GFP-p38) and FLAG-MAP2K4 in HEK293 cells, with or without Myc-ZDHHC17; IP of JNK1 (or p38), MAP2K4 detected

binding: binds
B1: Flag-MAP2K4 (protein, UniProt P45985 1-399)
chain: MAAPSPSGGGGSGGGSGSGTPGPVGSPAPGHPAVSSMQGKRKALKLNFANPPFKSTARFTLNPNPTGVQNPHIERLRTHSIESSGKLKISPEQHWDFTAEDLKDLGEIGRGAYGSVNKMVHKPSGQIMAVKRIRSTVDEKEQKQLLMDLDVVMRSSDCPYIVQFYGALFREGDCWICMELMSTSFDKFYKYVYSVLDDVIPEEILGKITLATVKALNHLKENLKIIHRDIKPSNILLDRSGNIKLCDFGISGQLVDSIAKTRDAGCRPYMAPERIDPSASRQGYDVRSDVWSLGITLYELATGRFPYPKWNSVFDQLTQVVKGDPPQLSNSEEREFSPSFINFVNLCLTKDESKRPKYKELLKHPFILMYEERAVEVACYVCKILDQMPATPSSPMYVD

From publication PMC6956818, “Activation of JNK and p38 MAPK Mediated by ZDHHC17 Drives Glioblastoma Multiforme Development and Malignant Progression” (Theranostics, 2020)
